From the supplement of paper PMC3334620
In all, about 33,000 sequences were measured (“E-score (-0.5 to 0.5)”: median about -0.0034, highest 2% from about 0.25 on). Some of the results follow.

Molecular target: T1, Yap3 (UniProt P38749)
T1 sequence: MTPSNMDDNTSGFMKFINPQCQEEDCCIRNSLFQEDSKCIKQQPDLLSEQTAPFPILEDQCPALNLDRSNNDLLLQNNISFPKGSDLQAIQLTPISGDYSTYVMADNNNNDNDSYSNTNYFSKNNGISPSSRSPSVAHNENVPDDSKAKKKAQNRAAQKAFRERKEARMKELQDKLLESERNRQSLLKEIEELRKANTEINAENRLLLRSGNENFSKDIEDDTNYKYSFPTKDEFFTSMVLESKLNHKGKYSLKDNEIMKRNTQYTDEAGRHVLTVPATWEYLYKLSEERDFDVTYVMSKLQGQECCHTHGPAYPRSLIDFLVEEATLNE
Assay: PBM E-score (8-mer binding enrichment) (E-score (-0.5 to 0.5)); higher = stronger / more preferred TF binding
Conditions: protein concentration: 100 nM; construct: GST-full length
Procedure, shortened: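 Universal all-10-mer Agilent arrays, double-stranded by primer extension on fresh or once-stripped slides, were probed with about 100-200 nM GST-tagged yeast transcription factors made by PURExpress. Fluorescent anti-GST detected bound protein, and masliner normalised the scans. E-scores from the Universal PBM Analysis Suite were given to each ungapped eight-base word pooled with its reverse complement.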

Point of comparison: AAATGAAC, “PBM E-score” value 0.0881. Against it:
- CTCCGGAC — lower, -0.127
- ATAGGGAT — lower, 0.00571
- CACTGGAC — lower, -0.0821
- GCGCCTGA — lower, -0.012
- AAGCACCG — lower, -0.109
- AGTTCATA — higher, 0.134
- CTTGCTTC — lower, -0.0336
- CGACGGAA — lower, 0.0643
- GCGAGGAC — lower, -0.157
- GTCACAAC — lower, 0.0143
- AGCCACGA — lower, -0.204
- AGTGATGG — lower, 0.018
- CACCTGGG — lower, -0.178
- AGGATAAC — lower, 0.0577
- ATCGATAC — higher, 0.208
- AGGCCATA — lower, -0.0829
- ACTTAGTG — lower, -0.0604
- AACTATGA — higher, 0.145
- GAACGTCC — lower, -0.0106
- TAGAAAAA — higher, 0.123
- ATGGTAAC — higher, 0.218
- CCATCGAC — lower, -0.17
- CCTAGCAG — lower, -0.139
- CTACGCAA — lower, -0.0364
- AGTCTTAT — higher, 0.146
- AGTTTACG — lower, 0.0693
- GTTGGTTA — higher, 0.112
- CATGCTTC — lower, -0.024
- CGCGGTCC — lower, -0.309
- CAGCTACG — lower, -0.271
- GACAGATA — higher, 0.218
- GTCATTAA — higher, 0.3
- GGGAAATA — lower, 0.0786
- CTATCTGC — lower, -0.0717
- CCCGCAGC — lower, -0.242
- GCCACGTA — lower, -0.075
- GATCGCAA — higher, 0.191
- CAACGGCA — lower, -0.115
- GGCAGTTA — lower, 0.00106
- CTGATTAC — higher, 0.223
- GGATAGTA — higher, 0.145
- GTCACCGA — lower, -0.0201
- CCGTAGGC — lower, -0.155
- GACAGCCC — lower, -0.186
- ACATGCAC — lower, 0.0283
- TATTAGCA — higher, 0.252
- ATAATATC — higher, 0.194
- GACTTTGA — lower, 0.00307
- CCCAGTGA — lower, -0.24
- AAGTCGGG — higher, 0.119
- CTGTATTA — higher, 0.258
- AGTCTCAT — lower, -0.106
- CACATGTA — higher, 0.109
- CCCAGTTA — lower, -0.179
- ACCGCCCG — lower, -0.258
- CGTTGGTA — lower, -0.0592
- CTCGACAC — lower, -0.03
- CTAGGGAA — lower, 0.00311
- CTATTGGA — higher, 0.0965
- AGTGCAAC — lower, -0.0596
- CGCAATAC — lower, 0.0866
- GAGCATCC — lower, -0.118
- AAACGCAA — higher, 0.158
- GTGCTCGA — lower, -0.122
- GTGTGGTA — lower, -0.0645
- GAGATGAC — higher, 0.0918
- GGTCGATA — lower, 0.0652
- CGACTCCA — lower, -0.141
- CGGACATA — lower, 0.0315
- ATACGGCC — lower, -0.0637
- CCCCATCG — lower, -0.13
- CCATCTGC — higher, 0.131
- AACCAGAC — lower, -0.206
- GTGGTGCA — lower, -0.113
- GCCGATCC — lower, -0.155
- GCCAAATA — higher, 0.154
- ACACAGGC — higher, 0.113
- GAACGTTA — lower, -0.157
- GGATACTA — lower, -0.03
- GATCCCCC — lower, -0.261
- GGAACCAA — lower, 0.0569
- AAGAGTGG — lower, -0.0925
- CCGTCCAG — lower, -0.152
- GCTAAGCC — lower, -0.192
- GTGCCATA — lower, -0.0657
- GATGATGC — lower, -0.169
- TAACGCAA — higher, 0.156
- CCGCGTAG — lower, -0.00206
- GCGCAACC — lower, -0.156
- CGCAACAC — lower, -0.0404
- CACGGTAA — lower, -0.0552
- GCGCATAC — lower, -0.0811
- GGTCTAGA — lower, -0.104
